These are yes or no findings as the source states them, for the method shown. In cells and extracts the contact can be indirect. Some entries that bind do so weakly or less than the wild type.
Target: T1, integrin-β6 (mouse (endogenous in mouse heart)) (UniProt Q9Z0T9)
T1 sequence: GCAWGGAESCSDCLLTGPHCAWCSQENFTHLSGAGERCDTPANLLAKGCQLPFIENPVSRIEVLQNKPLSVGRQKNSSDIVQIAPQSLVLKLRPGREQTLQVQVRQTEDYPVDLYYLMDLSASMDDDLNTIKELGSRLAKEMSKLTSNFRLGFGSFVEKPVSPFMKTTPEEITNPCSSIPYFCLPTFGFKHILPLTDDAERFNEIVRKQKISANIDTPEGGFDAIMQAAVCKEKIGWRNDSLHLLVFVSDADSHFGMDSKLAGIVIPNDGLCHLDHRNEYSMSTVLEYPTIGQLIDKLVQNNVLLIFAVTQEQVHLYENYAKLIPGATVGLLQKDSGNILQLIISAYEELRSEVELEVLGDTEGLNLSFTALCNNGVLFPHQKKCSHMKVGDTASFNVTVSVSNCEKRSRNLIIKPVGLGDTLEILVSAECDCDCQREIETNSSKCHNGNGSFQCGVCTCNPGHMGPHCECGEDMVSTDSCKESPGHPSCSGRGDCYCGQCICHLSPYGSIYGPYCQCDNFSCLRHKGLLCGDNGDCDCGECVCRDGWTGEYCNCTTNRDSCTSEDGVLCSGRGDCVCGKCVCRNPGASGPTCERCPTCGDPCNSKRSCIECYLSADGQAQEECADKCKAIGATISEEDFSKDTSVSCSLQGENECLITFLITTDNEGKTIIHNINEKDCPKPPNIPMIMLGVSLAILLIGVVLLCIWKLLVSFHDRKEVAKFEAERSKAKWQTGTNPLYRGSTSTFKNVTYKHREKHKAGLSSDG
Assay: co-IP

binding: binds
B1: desmoglein-2 (DSG2), wild type, endogenous (protein, UniProt O55111 55-1122)
chain: AWITAPVALREGEDLSRKNPIAKIHSDLAEEKGIKITYKYTGKGITEPPFGIFVFDRNTGELNITSILDREETPYFLLTGYALDSRGNNLEKPLELRIKVLDINDNEPVFTQEVFVGSIEELSAAHTLVMKITATDADDPETLNAKVSYRIVSQEPANSHMFYLNKDTGEIYTTSFTLDREEHSSYSLTVEARDGNGQITDKPVQQAQVQIRILDVNDNIPVVENKMYEGTVEENQVNVEVMRIKVTDADEVGSDNWLANFTFASGNEGGYFHIETDTQTNEGIVTLVKEVDYEEMKKLDLSIIVTNKAAFHKSILSKYKATPIPITVKVKNVVEGIHFKSSVVSFRASEAMDRSSLSRSIGNFQVFDEDTGQAAKVTYVKVQDTDNWVSVDSVTSEIKLVKIPDFESRYVQNGTYTAKVVAISKEHPQKTITGTIVITVEDVNDNCPVLVDSVRSVCEDEPYVNVTAEDLDGAQNSAPFSFSIIDQPPGTAQKWKITHQESTSVLLQQSERKRGRSEIPFLISDSQGFSCPERQVLQLTVCECLKGGGCVAAQYDNYVGLGPAAIALMILALLLLLLVPLLLLICHCGGGAKGFTPIPGTIEMLHPWNNEGAPPEDKVVPSLLVADHAESSAVRGGVGGAMLKEGMMKGSSSASVTKGQHELSEVDGRWEEHRSLLTAGATHHVRTAGTIAANEAVRTRATGSSRDMSGARGAVAVNEEFLRSYFTEKAASYNGEDDLHMAKDCLLVYSQEDTASLRGSVGCCSFIEGELDDLFLDDLGLKFKTLAEVCLGRKIDLDVDIEQRQKPVREASVSAASGSHYEQAVTSSESAYSSNTGFPAPKPLHEVHTEKVTQEIVTESSVSSRQSQKVVPPPDPVASGNIIVTETSYAKGSAVPPSTVLLAPRQPQSLIVTERVYAPTSTLVDQHYANEEKVLVTERVIQPNGGIPKPLEVTQHLKDAQYVMVRERESILAPSSGVQPTLAMPSVAAGGQNVTVTERILTPASTLQSSYQIPSETSITARNTVLSSVGSIGPLPNLDLEESDRPNSTITTSSTRVTKHSTMQHSYS
